{"sequences": {"note": "By UniProt entry, the sequences of proteins in these tests, tags left out.", "UniProt Q92830, whole entry, looked up": "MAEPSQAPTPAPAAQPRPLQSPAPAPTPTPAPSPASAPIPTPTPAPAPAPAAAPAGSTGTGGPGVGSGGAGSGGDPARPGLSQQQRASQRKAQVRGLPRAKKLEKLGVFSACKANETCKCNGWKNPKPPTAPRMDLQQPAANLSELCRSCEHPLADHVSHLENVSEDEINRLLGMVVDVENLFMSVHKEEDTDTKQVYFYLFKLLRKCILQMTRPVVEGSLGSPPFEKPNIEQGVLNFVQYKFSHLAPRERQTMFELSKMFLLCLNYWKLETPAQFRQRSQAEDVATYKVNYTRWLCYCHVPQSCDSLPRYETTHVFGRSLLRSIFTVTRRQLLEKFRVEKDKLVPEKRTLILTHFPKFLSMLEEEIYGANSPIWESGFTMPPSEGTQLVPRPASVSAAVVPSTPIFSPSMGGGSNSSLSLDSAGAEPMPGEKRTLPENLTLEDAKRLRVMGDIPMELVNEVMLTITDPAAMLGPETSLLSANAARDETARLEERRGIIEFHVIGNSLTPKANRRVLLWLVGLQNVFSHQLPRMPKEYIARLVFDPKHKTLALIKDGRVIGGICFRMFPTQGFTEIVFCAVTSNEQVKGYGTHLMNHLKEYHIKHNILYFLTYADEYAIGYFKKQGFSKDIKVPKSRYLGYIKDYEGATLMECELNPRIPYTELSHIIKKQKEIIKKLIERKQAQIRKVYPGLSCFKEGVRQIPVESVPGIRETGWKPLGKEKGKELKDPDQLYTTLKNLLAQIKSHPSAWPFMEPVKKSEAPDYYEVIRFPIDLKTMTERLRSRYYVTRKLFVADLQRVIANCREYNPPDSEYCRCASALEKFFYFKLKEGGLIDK"}, "source": "PubChem BioAssay AID504327", "about": "(National Center for Advancing Translational Sciences (NCATS), 2011)", "note": "In all, about 390,000 compounds went through this assay and about 820 (0.21%) were called active. The shares of active, inactive and inconclusive entries below differ from those in the screen. Calls follow the shape of the dose curve; as a rule, active = well fitted inhibition curve with a large enough effect; inconclusive = small, poorly fitted or top-dose-only effect, or another doubt; inactive = no such curve, though single readings can be large or run the other way. Potencies beside an inconclusive call are fits to weak or partial responses and may not hold up. % is scaled to controls: 0 for no effect and ±100 for the full control effect; potency is read from the fitted curve at half-maximal effect.", "data": [{"molecular_target": "Histone acetyltransferase KAT2A (Homo sapiens) (UniProt Q92830)", "assay": "qHTS Assay for Inhibitors of GCN5L2", "conditions": "GCN5L2 HAT assay, ThioGlo1 CoA-SH fluorescence; activity change, negative = inhibition: at 58.9 µM (top of the series) unless noted", "outline": "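GCN5L2 (20nM final) in 50mM HEPES, 0.1mM EDTA pH 7.5, 0.01% Tween-20 was preincubated 15 min at room temperature with compound, then given ThioGlo1 (50uM), H3(1-25) peptide (75uM) and acetyl-CoA (70uM); CoA-thiol fluorescence (Ex340/Em540) was read at 0 and 20 min.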", "values": [{"smiles": "CSc1nc(N(CCO)CCO)c2sc3nc(-c4ccco4)c4c(c3c2n1)CCC4", "Potency": "inconclusive: 15.8 µM [inhibitor, partial curve]"}, {"smiles": "COc1ccc(OCc2nnc3n2N=C(c2ccccc2)C(CC(=O)O)S3)cc1", "note": "(stereo unspecified)", "Potency": "inconclusive: 31.6 µM [inhibitor, single point]"}, {"smiles": "CC(=O)Nc1c(O)nc(SCC(=O)Nc2nnc(CC(C)C)s2)[nH]c1=O", "activity change, negative = inhibition": "inactive: -3.95%"}, {"smiles": "COCCNC(=O)c1onc(CCl)c1C(=O)OC", "Potency": "inconclusive: 0.891 µM [inhibitor, partial curve]"}, {"smiles": "CC(Oc1cc2oc(=O)c3c(c2cc1Cl)CCC3)C(=O)N1C[C@H]2C[C@@H](C1)c1cccc(=O)n1C2", "note": "(stereo partly specified)", "Potency": "inconclusive: 35.5 µM [inhibitor, partial curve]"}, {"smiles": "CCNC(=S)NNC(=O)c1cc(-c2ccccc2C)nc2ccccc12", "Potency": "inconclusive: 39.8 µM [inhibitor, single point]"}, {"smiles": "CCc1ccc(NC(=O)CSc2nccn2-c2ccc(F)cc2)cc1", "activity change, negative = inhibition": "inactive: 0.7%"}, {"smiles": "Cc1ccccc1NC(=O)c1cccc2c1C(=O)N(C1CCCCC1)C2", "activity change, negative = inhibition": "inactive: -0.952%"}, {"smiles": "Cc1ccc(NC(=O)CN2C(=O)N/C(=C/c3ccccc3OCc3cccc(C(=O)O)c3)C2=O)cc1", "Potency": "inconclusive: 31.6 µM [inhibitor, partial curve, poor fit]"}, {"smiles": "Cc1ccc(-c2ccc(/C=N/c3ncn[nH]3)o2)cc1Cl", "activity change, negative = inhibition": "inactive: -6.27%"}, {"smiles": "CCCCCSc1nc2sc3c(c2c(=O)n1-c1ccc(OC)cc1)CCN(C(C)=O)C3", "Potency": "inconclusive: 8.91 µM [inhibitor, full curve, poor fit]"}, {"smiles": "CCCS(=O)(=O)N1CCC(C(=O)N2CCc3ccccc3C2)CC1", "Potency": "inconclusive: 2.51 µM [inhibitor, full curve, poor fit]"}, {"smiles": "O=C(NC(Cc1ccccc1)C(=O)N1CCN(c2ccccc2O)CC1)c1ccccc1", "note": "(stereo unspecified)", "Potency": "inconclusive: 20 µM [inhibitor, partial curve]"}, {"smiles": "COc1ccc(NC(=O)CN(C)C(=O)c2cccc(-n3cccc3)c2)cc1", "Potency": "inconclusive: 28.2 µM [inhibitor, single point]"}, {"smiles": "COC(=O)CC[C@@H](C(=O)O)N1C(=O)c2ccccc2C1=O", "Potency": "inconclusive: 39.8 µM [inhibitor, single point]"}, {"smiles": "CC(/C=C/c1ccc2c(c1)OCO2)=N/NC(=O)c1ccncc1", "Potency": "inconclusive: 0.355 µM [inhibitor, full curve, poor fit]"}, {"smiles": "O=C(O)CC(CNS(=O)(=O)c1ccccc1)c1ccccc1", "note": "(stereo unspecified)", "activity change, negative = inhibition": "inactive: -13.7%"}, {"smiles": "CC(NC(=O)c1cc(COc2cccc(C(F)(F)F)c2)on1)c1nccs1", "note": "(stereo unspecified)", "Potency": "inconclusive: 39.8 µM [inhibitor, partial curve, poor fit]"}, {"smiles": "O=C(COc1ccc2c3c(c(=O)oc2c1)CCCC3)NCCCn1ccnc1", "Potency": "inconclusive: 8.91 µM [inhibitor, single point]"}, {"smiles": "CCN(CC)Cc1c(O)ccc2c(=O)c(-c3ccccc3Cl)coc12", "Potency": "inconclusive: 28.2 µM [inhibitor, single point]"}, {"smiles": "CCN(CC)C(=O)N1c2ccccc2CC(N(CC)CC)c2ccccc21", "note": "(stereo unspecified)", "Potency": "inconclusive: 0.631 µM [inhibitor, single point]"}, {"smiles": "O=C(CN1CCN(C(=O)C2CCCO2)CC1)Nc1cc(C(F)(F)F)ccc1Cl", "note": "(stereo unspecified)", "Potency": "inconclusive: 5.01 µM [inhibitor, full curve]"}, {"smiles": "Cc1nc2ncnn2c(C)c1CCC(=O)NC(C)CCc1ccco1", "note": "(stereo unspecified)", "Potency": "inconclusive: 39.8 µM [inhibitor, partial curve, poor fit]"}, {"smiles": "COc1ccc(/C=N/NC(=O)c2nn(-c3ccccc3)c(=O)c3c(N)scc23)cc1", "Potency": "inconclusive: 11.2 µM [inhibitor, partial curve]"}, {"smiles": "CCOC(=O)C(=O)C1(C(=O)OCC)Oc2cc(OC)cc(OC)c2C(=O)C1c1ccccc1", "note": "(stereo unspecified)", "activity change, negative = inhibition": "inactive: -10.2%"}, {"smiles": "CN(C)CCNc1oc(COc2ccc(Cl)cc2Cl)nc1C#N", "Potency": "inconclusive: 39.8 µM [inhibitor, single point]"}, {"smiles": "COc1ccc(C(=O)Nc2ccc(C(=O)OCc3cc(=O)n4nc(C5CC5)sc4n3)cc2)cc1", "activity change, negative = inhibition": "inactive: 21.1%"}, {"smiles": "CCN(CC)C(=O)Nc1ccc2c(c1)N(Cc1ccccc1)C(=O)c1ccccc1S2", "activity change, negative = inhibition": "inactive: -21.7%"}, {"smiles": "CC(=O)n1cc(N(C(=O)CCl)c2ccccc2)c2ccccc21", "activity change, negative = inhibition": "inactive: 0.163%"}, {"smiles": "COc1ccc(NC2CCCN(C(=O)CCc3cccc(Cl)c3)C2)cc1", "note": "(stereo unspecified)", "activity change, negative = inhibition": "inactive: -6.94%"}, {"smiles": "Cn1ncc(Cl)c1C(=O)N1CCN(c2ccccc2)CC1", "Potency": "inconclusive: 1 µM [inhibitor, full curve, poor fit]"}, {"smiles": "Cc1ccc(-n2cccc2/C=C2\\C(=N)N3N=C(c4ccco4)SC3=NC2=O)cc1", "Potency": "inconclusive: 12.6 µM [inhibitor, partial curve]"}, {"smiles": "CCC1CCc2c(sc(NC(=O)C3c4ccccc4Oc4ccccc43)c2C(N)=O)C1", "note": "(stereo unspecified)", "Potency": "inconclusive: 20 µM [inhibitor, single point]"}, {"smiles": "Cc1cc[n+](CC[n+]2ccc(C)cc2)cc1", "Potency": "inconclusive: 6.31 µM [inhibitor, single point]"}, {"smiles": "CCOC(=O)CSc1nc2c(c(=O)[nH]c(=O)n2C)n1Cc1ccccc1", "Potency": "inconclusive: 35.5 µM [inhibitor, single point]"}, {"smiles": "Cc1ccnc(-n2sc3ccccc3c2=O)n1", "Potency": "active: 3.16 µM"}, {"smiles": "CC(C)OC(=O)c1ccc(NC(=O)CSc2nc3ncccc3[nH]2)cc1", "activity change, negative = inhibition": "inactive: -2.79%"}, {"smiles": "COc1ccccc1C(=O)C1CCCN(C(=O)C2CCCC2)C1", "note": "(stereo unspecified)", "Potency": "inconclusive: 8.91 µM [inhibitor, single point]"}, {"smiles": "CCOc1cc(NC(=S)Nc2ccccc2)c(OCC)cc1NC(=O)c1ccccc1", "Potency": "inconclusive: 39.8 µM [inhibitor, single point]"}, {"smiles": "CC(=O)Nc1ccc(NC(=O)COc2cc(O)c3c(c2)OC(C)(C)CC3=O)cc1", "Potency": "inconclusive: 39.8 µM [inhibitor, single point]"}, {"smiles": "O=C(c1ccccc1)c1sc(N2CCCCCC2)nc1-c1ccccc1", "Potency": "inconclusive: 0.891 µM [inhibitor, full curve]"}, {"smiles": "CCCN(C(=O)c1cc2c(s1)CCC2)c1c(N)n(Cc2ccccc2)c(=O)[nH]c1=O", "activity change, negative = inhibition": "inactive: -28.1%"}, {"smiles": "Cc1nnc(SCC(=O)Nc2nccs2)n(N)c1=O", "Potency": "inconclusive: 7.08 µM [inhibitor, single point]"}, {"smiles": "CCN1CCN(Cc2c(C)[nH]c3ccc(C(=O)OC)cc3c2=O)CC1", "Potency": "inconclusive: 3.16 µM [inhibitor, partial curve]"}, {"smiles": "CC(=O)Nc1ccc(NC(=O)CSc2nnc(NC(=O)C3CC(=O)N(c4ccc(F)cc4)C3)s2)cc1", "note": "(stereo unspecified)", "activity change, negative = inhibition": "inactive: -1.63%"}, {"smiles": "Cc1cc2ncn(-c3ncnc4sc5c(c34)CCC(C)C5)c2cc1C", "note": "(stereo unspecified)", "Potency": "inconclusive: 0.794 µM [inhibitor, single point]"}, {"smiles": "O=C(COC(=O)/C=C/c1ccc(OC(F)F)cc1)NCCN1C(=O)CSC1=O", "activity change, negative = inhibition": "inactive: -1.7%"}, {"smiles": "CN(c1ccc(C(=O)Nc2cccnc2)cc1)S(=O)(=O)c1ccc(Cl)cc1", "Potency": "inconclusive: 39.8 µM [inhibitor, single point]"}, {"smiles": "Cc1ccc(C2CN(C)C3(C(=O)Nc4ccccc43)C23COc2ccccc2C3=O)cc1", "note": "(stereo unspecified)", "Potency": "inconclusive: 1.78 µM [inhibitor, single point]"}, {"smiles": "Cc1nc2c(c(C)c1CCC(=O)NCc1ccccc1)c(=O)n(C)c(=O)n2C", "activity change, negative = inhibition": "inactive: -1.5%"}, {"smiles": "Cc1nc2n(n1)CC(O)CS2", "note": "(stereo unspecified)", "Potency": "inconclusive: 5.62 µM [inhibitor, single point]"}, {"smiles": "CS(=O)(=O)c1ccc(C(=O)OCc2nnc(-c3ccc(Cl)cc3)o2)cc1[N+](=O)[O-]", "activity change, negative = inhibition": "inactive: -2.09%"}, {"smiles": "Cc1ccnc(S(=O)(=O)Cc2ccc([N+](=O)[O-])cc2)n1", "Potency": "inconclusive: 1.41 µM [inhibitor, full curve, poor fit]"}, {"smiles": "CCC(=O)c1ccc(OCC(O)Cn2nc(C)c(Br)c2C)cc1", "note": "(stereo unspecified)", "Potency": "inconclusive: 39.8 µM [inhibitor, single point]"}, {"smiles": "O=C1/C(=C/c2ccncc2)SC(=S)N1C1CCS(=O)(=O)C1", "note": "(stereo unspecified)", "Potency": "inconclusive: 0.631 µM [inhibitor, single point]"}, {"smiles": "COc1ccc(-c2nc3cnc(Nc4ccccc4)nc3n(CCC#N)c2=O)cc1", "Potency": "inconclusive: 35.5 µM [inhibitor, single point]"}, {"smiles": "Cc1cccc(C)c1NC(=O)C/C(N)=N/O", "Potency": "inconclusive: 7.08 µM [inhibitor, single point]"}, {"smiles": "O=C1[C@H]2[C@@H](c3ccc(F)cc3)N3C(=O)N(c4cccc(Cl)c4)C(=O)[C@@]3(Cc3ccc(Cl)cc3)[C@H]2C(=O)N1C1CCCCC1", "Potency": "inconclusive: 3.98 µM [inhibitor, single point]"}, {"smiles": "CCN1/C(=C/C=C/C=C/C=C/c2sc3ccccc3[n+]2CC)Sc2ccccc21", "Potency": "inconclusive: 39.8 µM [inhibitor, single point]"}, {"smiles": "CCOc1ccccc1NC(=O)NNS(=O)(=O)c1cc(OC)ccc1OC", "Potency": "inconclusive: 0.1 µM [inhibitor, full curve, poor fit]"}, {"smiles": "COCCN1Cc2cccc(C(=O)NCCCN3CCCC3=O)c2C1=O", "Potency": "inconclusive: 39.8 µM [inhibitor, single point]"}, {"smiles": "COc1ccc2[nH]cc(CCO)c2c1", "activity change, negative = inhibition": "inactive: -6.23%"}, {"smiles": "Cc1ccc2c(cnn2C(=O)CCC(=O)NCc2cccc(Br)c2)c1", "Potency": "inconclusive: 0.562 µM [inhibitor, single point]"}, {"smiles": "N#C/C(=C\\c1ccc(OCc2ccc(Cl)cc2)cc1)C(=O)Nc1cccc(C(=O)O)c1", "Potency": "inconclusive: 20 µM [inhibitor, partial curve]"}, {"smiles": "COc1ccc(-c2cn3cccnc3n2)cc1NS(=O)(=O)c1ccccc1", "Potency": "inconclusive: 0.562 µM [inhibitor, full curve, poor fit]"}, {"smiles": "COc1cc(C(=O)NCCOc2ccccc2)cc(OC)c1OC", "Potency": "inconclusive: 7.08 µM [inhibitor, single point]"}]}]}
